Holding throughout (experiment): EMSA
(In EMSA bound probe runs differently from free probe, usually more slowly.)

Chains of the proteins cited; added tags and fusions are not shown.
UniProt P08515, whole entry: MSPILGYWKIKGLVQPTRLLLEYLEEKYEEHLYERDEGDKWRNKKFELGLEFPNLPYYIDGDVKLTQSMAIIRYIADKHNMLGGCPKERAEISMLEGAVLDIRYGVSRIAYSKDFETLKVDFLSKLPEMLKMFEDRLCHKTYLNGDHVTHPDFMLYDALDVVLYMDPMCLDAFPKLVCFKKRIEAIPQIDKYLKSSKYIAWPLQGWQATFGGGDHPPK

The test system of data set [1] is GST-Meis2 dHD (lacks homeodomain). Conditions: 10 mM Tris-HCl pH 8.0, 150 mM KCl, 0.25 mM EDTA, 12.5% glycerol, 0.2 mM DTT, protease inhibitors, 1 ug/ul BSA, 1 ug poly(dIdC), 2 ug GST protein; room temperature; recombinant protein; residues 1-190; protein details: N-terminal GST; label: 32P 5' end (polynucleotide kinase).
A further data set has as its system GST-Meis2 full length. Conditions: competed by 10x unlabeled specific oligo, no Pbx; 10 mM Tris-HCl pH 8.0, 150 mM KCl, 0.25 mM EDTA, 12.5% glycerol, 0.2 mM DTT, protease inhibitors, 1 ug/ul BSA, 1 ug poly(dIdC), 2 ug GST protein; room temperature; recombinant protein; residues 1-400; protein details: N-terminal GST; label: 32P 5' end (polynucleotide kinase).
For data set [2], the system named is GST-Meis2 dMD (lacks MEINOX domain). Conditions: competed by excess unlabeled specific oligo, no Pbx; 10 mM Tris-HCl pH 8.0, 150 mM KCl, 0.25 mM EDTA, 12.5% glycerol, 0.2 mM DTT, protease inhibitors, 1 ug/ul BSA, 1 ug poly(dIdC), 2 ug GST protein; room temperature; recombinant protein; residues 199-400; protein details: N-terminal GST; label: 32P 5' end (polynucleotide kinase).

A further data set addresses GST (UniProt P08515). The settings on record: 10 mM Tris-HCl pH 8.0, 150 mM KCl, 0.25 mM EDTA, 12.5% glycerol, 0.2 mM DTT, protease inhibitors, 1 ug/ul BSA, 1 ug poly(dIdC), 2 ug GST protein; room temperature; recombinant protein; protein details: GST; label: 32P 5' end (polynucleotide kinase).

For at least one entry, the source does not settle the construct or the ends of the probe. For some of these results: A negative result means that nothing was seen under these conditions.

With “CGAAGCCGGCCTTGTCAGGTTGAGAA (double strand) [26-bp Meis probe]”, the binding result in data set [1] is reported as “no binding”; with GST-Meis2 full length it was “binds”; in data set [2], “binds”; with GST it was “no binding”.

The values are drawn from article PMC3313853.
